Source: article PMC11672250
These are yes or no findings as the source states them, for the method shown. Binding seen in cells or lysates may run through a third protein. Some results given as binding are weak or reduced against the parent protein; the word gives no strength.

Chains of the proteins cited; added tags and fusions are not shown. Residues count along the entry.
UniProt P25705, residues 44-553: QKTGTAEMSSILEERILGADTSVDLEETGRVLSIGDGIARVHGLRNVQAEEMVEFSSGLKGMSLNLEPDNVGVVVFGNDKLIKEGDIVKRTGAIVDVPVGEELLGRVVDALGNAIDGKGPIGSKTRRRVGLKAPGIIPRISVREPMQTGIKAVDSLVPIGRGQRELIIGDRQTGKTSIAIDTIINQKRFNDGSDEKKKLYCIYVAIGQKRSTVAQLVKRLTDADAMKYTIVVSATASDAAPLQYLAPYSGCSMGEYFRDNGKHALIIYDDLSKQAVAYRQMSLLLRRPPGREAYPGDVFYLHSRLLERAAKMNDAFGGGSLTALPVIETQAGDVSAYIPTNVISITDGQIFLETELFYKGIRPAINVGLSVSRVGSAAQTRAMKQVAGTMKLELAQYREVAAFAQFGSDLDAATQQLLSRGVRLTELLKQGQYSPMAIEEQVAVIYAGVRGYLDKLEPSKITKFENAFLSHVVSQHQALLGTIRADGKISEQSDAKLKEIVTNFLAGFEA
UniProt Q07912: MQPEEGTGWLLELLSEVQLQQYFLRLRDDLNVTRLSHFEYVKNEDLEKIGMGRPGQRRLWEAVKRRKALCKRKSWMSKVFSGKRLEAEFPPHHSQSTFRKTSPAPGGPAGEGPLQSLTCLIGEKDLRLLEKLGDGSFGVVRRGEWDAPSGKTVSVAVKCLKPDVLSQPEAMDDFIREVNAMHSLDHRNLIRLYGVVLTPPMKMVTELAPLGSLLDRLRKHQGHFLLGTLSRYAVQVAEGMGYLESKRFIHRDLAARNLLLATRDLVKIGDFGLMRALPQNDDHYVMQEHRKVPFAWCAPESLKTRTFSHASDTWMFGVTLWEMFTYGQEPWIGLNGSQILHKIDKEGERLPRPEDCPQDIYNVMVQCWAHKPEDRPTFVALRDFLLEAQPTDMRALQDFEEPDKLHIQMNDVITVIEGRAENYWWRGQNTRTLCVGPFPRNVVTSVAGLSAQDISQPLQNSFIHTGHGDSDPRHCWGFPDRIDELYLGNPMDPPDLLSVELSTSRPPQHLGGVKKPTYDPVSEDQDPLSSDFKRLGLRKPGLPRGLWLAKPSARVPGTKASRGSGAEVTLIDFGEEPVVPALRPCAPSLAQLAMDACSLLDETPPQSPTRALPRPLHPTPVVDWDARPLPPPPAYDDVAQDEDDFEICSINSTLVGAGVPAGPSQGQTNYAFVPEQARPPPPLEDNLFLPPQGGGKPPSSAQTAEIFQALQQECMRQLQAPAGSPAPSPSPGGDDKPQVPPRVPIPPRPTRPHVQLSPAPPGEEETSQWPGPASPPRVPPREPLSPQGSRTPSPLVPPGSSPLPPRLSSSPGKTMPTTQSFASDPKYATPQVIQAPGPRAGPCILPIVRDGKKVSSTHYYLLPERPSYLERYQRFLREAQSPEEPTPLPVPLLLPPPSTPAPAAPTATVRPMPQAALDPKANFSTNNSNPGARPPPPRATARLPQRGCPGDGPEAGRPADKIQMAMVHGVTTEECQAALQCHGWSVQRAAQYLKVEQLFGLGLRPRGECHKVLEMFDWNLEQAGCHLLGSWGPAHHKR

Molecular target: ATP synthase F1 subunit ATP5F1A (human (endogenous in PC3 and C4-2)) (UniProt P25705)
Test: co-IP; endogenous proteins in PC3 and C4-2 lysates (EBC buffer: 50 mM Tris-HCl, 120 mM NaCl, 0.5% NP-40), primary antibody and protein A/G agarose, washed with NETN buffer, Western blot; cells with SFT2D2-TBX19 knockdown or overexpression, with or without docetaxel

Question: Which binding does the source give for “TNK2/ACK1 (from UniProt Q07912 1-1038) (enzyme)” here?
Answer: The binding was “binds”.
